From the supplement of paper PMC10727501
Some of the results follow. Repeats in this data set agree poorly, so a single value says little.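 Free-swimming zebrafish larvae were assessed for O-bend response probability to dark flashes (naive: first five; training: remaining flashes across four 60-flash blocks; test: later 60-flash block) and for OMR turning toward alternating leftward/rightward LED motion. Six treated larvae were compared against sixty 0.1% DMSO controls; hits required |SSMD|≥2.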

Key:
Settings in all cases: 10 µM; pre-incubation: 30-90 min
[1] = tested on: Danio rerio larvae (5 dpf, TLF); test: OMR-Perf (SSMD vs DMSO vehicle); higher = higher than vehicle (e.g. higher dark-flash O-bend response probability, or better optomotor performance)
[2] = tested on: Danio rerio larvae (5 dpf, TLF); test: Prob-Test (SSMD vs DMSO vehicle); higher = higher than vehicle (e.g. higher dark-flash O-bend response probability, or better optomotor performance)
[3] = tested on: Danio rerio larvae (5 dpf, TLF); test: Prob-Naive (SSMD vs DMSO vehicle); higher = higher than vehicle (e.g. higher dark-flash O-bend response probability, or better optomotor performance)
[4] = tested on: Danio rerio larvae (5 dpf, TLF); test: Prob-Train (SSMD vs DMSO vehicle); higher = higher than vehicle (e.g. higher dark-flash O-bend response probability, or better optomotor performance)

SMILES	OMR-Perf [1]	Prob-Test [2]	Prob-Naive [3]	Prob-Train [4]
O=C(NNc1nc2cc(F)ccc2n2cccc12)c1cnccn1	-0.424	-1.2	-0.419	-0.476
CC(=O)Oc1cc2c(s1)CCN(C(C(=O)C1CC1)c1ccccc1F)C2 (stereo not given) [Prasugrel]	-0.111	-0.494	-0.551	-1.61
COc1cc([C@H]2Oc3cc([C@@H]4Oc5cc(O)cc(O)c5C(=O)[C@@H]4O)ccc3O[C@@H]2CO)ccc1O [Silibinin]	0.247	0.171	0.47	-0.00823
COc1ccccc1OCC(O)COC(N)=O (stereo not given) [Methocarbamol]	0.014	-0.588	-0.112	-0.0977
COc1ccc(-c2cc(=O)c3c(O)cc(O[C@@H]4O[C@H](CO[C@@H]5O[C@@H](C)[C@@H](O)[C@@H](O)[C@H]5O)[C@@H](O)[C@H](O)[C@H]4O)cc3o2)cc1O [Diosmin]	-0.531	-0.245	-0.0681	0.282
CCCCCN(C)CCC(O)(P(=O)(O)O)P(=O)(O)O.O.[Na] [Ibandronate sodium]	-0.29	-0.00639	0.13	-0.182
CC(C)NCC(O)COc1cccc2ccccc12.Cl (stereo not given) [Propranolol HCl]	0.0374	0.334	0	0.475
C[C@H]1C[C@@H]2[C@@H]([C@H](O)C[C@@]3(C)[C@H]2CC[C@@]3(O)C(=O)CO)[C@@]2(C)C=CC(=O)C=C12 [Methylprednisolone]	0.0911	-0.256	-0.424	-0.783
CCOC(=O)c1ccc(N)cc1 [Benzocaine]	-0.14	-0.295	-0.315	-0.352
COc1c(C)c2c(c(O)c1C/C=C(\C)CCC(=O)OCCN1CCOCC1)C(=O)OC2 [Mycophenolate Mofetil]	-0.114	-0.0829	-0.343	-0.405
CC1CC(OC(=O)C(O)c2ccccc2)CC(C)(C)C1 (stereo not given) [Cyclandelate]	-0.115	-0.49	-1.51	-1.55
CC1(C)S[C@@H]2[C@H](NC(=O)[C@H](N)c3ccc(O)cc3)C(=O)N2[C@@H]1C(=O)[O-].[Na+] [Amoxicillin Sodium]	-0.672	0.163	0.204	0.393
CN1C(C(=O)Nc2ccccn2)=C(O)c2sc(Cl)cc2S1(=O)=O [Lornoxicam]	-0.99	-1.3	0.13	-1.41
Cc1cn([C@H]2O[C@@H](CO)[C@H](O)[C@@H]2F)c(=O)[nH]c1=O [Clevudine]	0.485	0.465	0.402	0.528
Cl.OC(CCN1CCCCC1)(c1ccccc1)C1CC2C=CC1C2 (stereo not given) [Biperiden HCl]	-0.645	-0.908	0.0775	-0.802
CS(=O)(=O)O.Cc1ccc(N(CC2=NCCN2)c2cccc(O)c2)cc1 [Phentolamine Mesylate]	-0.0822	0.129	-0.0812	-0.394
CCN1CC(CCN2CCOCC2)C(c2ccccc2)(c2ccccc2)C1=O.Cl.O (stereo not given) [Doxapram HCl]	0.269	0.184	0.124	-0.5
Cn1cc(-c2ccc3nnc(C(F)(F)c4ccc5ncccc5c4)n3n2)cn1	0.229	-0.751	-0.285	-0.596
N#CC(=Cc1ccc(-c2cc(Cl)ccc2Cl)o1)C(=O)Nc1cccc2ncccc12	-0.287	-0.865	-0.0813	-0.214
COc1nc(C)cnc1NS(=O)(=O)c1cccnc1-c1ccc(-c2nnco2)cc1 [Zibotentan (ZD4054)]	-0.147	0.528	0.29	0.511
O=C(/C=C/c1cccnc1)NCCCCC1CCN(C(=O)c2ccccc2)CC1	0.149	0.2	-0.163	-0.00266
O=c1c(-c2ccc(O)cc2)coc2cc(O)cc(O)c12 [Genistein]	0.0841	0.593	-0.262	0.157
OC[C@H](O)CN1CCN(c2ccccc2)CC1 [Levodropropizine]	-0.228	-0.436	-0.851	-0.209
COc1ccccc1N1CCN(CCN(C(=O)C2CCCCC2)c2ccccn2)CC1.Cl.Cl.Cl	-0.933	-0.452	0.028	-0.638
CN1CCC(=C2c3ccccc3CC(=O)c3sccc32)CC1.O=C(O)/C=C/C(=O)O [Ketotifen Fumarate]	0.25	-0.319	-0.027	-0.381

Some of the entries so far, in CSV form.
SMILES,OMR-Perf [1],Prob-Test [2],Prob-Naive [3],Prob-Train [4]
Cc1cn([C@H]2O[C@@H](CO)[C@H](O)[C@@H]2F)c(=O)[nH]c1=O [Clevudine],0.485,0.465,0.402,0.528
Cl.OC(CCN1CCCCC1)(c1ccccc1)C1CC2C=CC1C2 (stereo not given) [Biperiden HCl],-0.645,-0.908,0.0775,-0.802
